# Measured values as given in the supplement of paper PMC3334620.
# Whole data set: some 33,000 sequences, median “E-score (-0.5 to 0.5)” near -8e-05, cut for the highest 2% near 0.23. The list shows a part of the results.
# Molecular target: T1, Nrg2 (UniProt P38082)
# T1 sequence: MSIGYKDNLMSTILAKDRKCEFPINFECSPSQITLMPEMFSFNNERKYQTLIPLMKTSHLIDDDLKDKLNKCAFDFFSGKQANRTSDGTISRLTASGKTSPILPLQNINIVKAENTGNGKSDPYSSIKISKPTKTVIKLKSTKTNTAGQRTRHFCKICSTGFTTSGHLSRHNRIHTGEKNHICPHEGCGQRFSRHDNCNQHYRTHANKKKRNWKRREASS
# Assay: PBM E-score (8-mer binding enrichment) (E-score (-0.5 to 0.5)); higher = stronger / more preferred TF binding
# Settings: protein concentration: 100 nM; construct: GST-full length
# Experimental: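 Universal 'all 10-mer' protein binding microarrays (Agilent AMADID 015681) probed with GST-tagged S. cerevisiae TFs (full-length or DBD) made by in vitro transcription/translation (PURExpress), about 100-200 nM. Bound TF was detected with fluorescent anti-GST. Each ungapped 8-mer (which stands for itself and its reverse complement) is scored by the PBM enrichment score (E-score), a modified Wilcoxon-Mann-Whitney statistic from -0.5 to +0.5, computed with the Universal PBM Analysis Suite. Scale: above 0.35 generally sequence-specific binding.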
row,Sequence,PBM E-score
1,CAAAATCA,0.0593
2,ATAGTACA,0.108
3,CGGTGTAG,0.0602
4,ACTTGCGC,0.0684
5,CCATTCTC,-0.0701
6,AGCTGCGC,0.108
7,AGGGAAGG,-0.231
8,TAAATCTA,0.0846
9,ACCACTTC,-0.0929
10,AAGCATCA,0.0199
11,AACGCAAT,0.0611
12,CTGGATTA,0.0913
13,TCGCTGCA,0.125
14,TTACACAA,0.0808
15,CTGTAGAC,-0.135
16,CGCGCGCG,0.302
17,ATACTCGA,0.0646
18,GAGCGCGA,0.196
19,CACGGAAG,-0.196
20,GCTGCTCC,-0.136
21,AACGTAGC,-0.085
22,ATGACTTA,0.0332
23,CGCTGTAC,0.041
24,TCCGCTAA,0.0636
25,ACCCTTCT,-0.104

row,Sequence,PBM E-score
1,CGCCGTCA,0.0626
2,ACATGGGC,0.128
3,GCTGGGCA,0.0393
4,TAGGCAGA,-0.0271
5,AGCGTGAA,-0.118
6,AGGTCCTC,-0.117
7,ATCTGACC,0.125
8,ATTTACGA,0.024
9,GAGTGATC,0.136
10,AAGACCGC,-0.0957
11,TCCGGAGA,-0.0525
12,ACCAACTA,0.17
13,CCACCTAG,-0.13
14,CATCATCG,0.0376
15,AAAACAAC,-0.185
16,ATTGCTTC,0.0796
17,AAAATAAG,0.153
18,CACATAGG,-0.028
19,CCTCCATC,-0.257
20,CAGGTTGA,-0.0404
21,GCGCCTCA,0.00325
22,CGAACGCA,0.282
23,AACCGGCA,-0.106
24,CACTCAAG,-0.126
25,ACATTTCT,0.1

row,Sequence,PBM E-score
1,AGGGCAAC,0.115
2,CCATGCAG,0.155
3,ATCGCGGC,0.166
4,CCCTTAAA,0.101
5,CCCATATC,0.186
6,ATTTCCAG,0.0415
7,GCTTCTAA,-0.133
8,CGCAACAA,0.0368
9,GGCTCGGA,-0.246
10,CAAGCGAA,0.147
11,TCGGCCCA,-0.0697
12,ATTTGGGG,0.098
13,CTGGTTAC,-0.23
14,ATCTTAAT,0.0874
15,CAAAGTTA,0.135
16,CCTTAGTC,-0.119
17,AGCAACTA,0.00881
18,GAGGCGAC,-0.131
19,AAGGCCGG,-0.146
20,GGTAGGGA,0.0892
21,TCGTTACA,-0.0882
22,GCTTAGAA,-0.104
23,AATCCATC,0.127
24,CTGTAGCA,-0.167
25,GAGTTCCA,0.00119

row,Sequence,PBM E-score
1,CTCAGTAC,-0.0223
2,ACTGGCTA,-0.124
3,AGCGTGCC,-0.194
4,CGTTTCTC,-0.0286
5,CGCCCCAA,0.261
6,GCTGTCCC,-0.00551
7,AGGAGTAG,-0.0836
8,AGATAGGA,-0.0906
9,ACATCGAA,0.14
10,CATAAAAG,-0.198
11,CCACCTAC,-0.174
12,AACTCCAA,0.0352
13,AGGACCAA,0.00705
14,CAACAAGA,0.122
15,CCCGCTAC,-0.0356
16,AGAAACAC,0.0617
17,ACTTACAT,-0.0423
18,ACCATAAC,0.171
19,GACGTCAC,0.0326
20,AAAAGGAT,0.0569
21,CACGTAAA,-0.198
22,CCTCTGTC,0.00755
23,GACTCCAC,-0.261
24,AGCTGCAC,0.0402
25,ACCCTTAA,0.152

# Some of the entries so far, as tab-separated lines:
row	Sequence	PBM E-score
1	CTCAGTAC	-0.0223
6	GCTGTCCC	-0.00551
9	ACATCGAA	0.14
17	ACTTACAT	-0.0423
18	ACCATAAC	0.171
19	GACGTCAC	0.0326
22	CCTCTGTC	0.00755

# (next part)

row,Sequence,PBM E-score
1,ACTACCCT,0.188
2,CTAAGAAA,0.0878
3,TCGGGCCA,-0.122
4,AACTCACA,0.102
5,CCAACCAC,0.196
6,ACTCTTTG,-0.101
7,CGGAGTGC,0.0897
8,GGGCGGGA,0.083
9,AGCGTTTG,-0.147
10,AGCAGCAA,0.0369
11,ACAGGGGT,0.0476
12,AGGATCGC,-0.0753
13,CGAGTACA,0.131
14,ACGACCGT,-0.187
15,GCAGGCAC,-0.211
16,ACCAACAC,0.102
17,CCGTCCAA,-0.145
18,GATAAGCC,-0.125
19,ACCCACCG,0.016
20,CCGCTCCA,-0.0938
21,GTAATCAC,0.0157
22,AGCGCACA,0.137
23,ATCGGGAA,0.183
24,CGTAGTTA,0.0341
25,TACCCAGA,0.142

row,Sequence,PBM E-score
1,CCGATCAG,-0.11
2,CACGCGTG,0.198
3,CACCGAAC,-0.16
4,ACGTTAAT,0.116
5,AACCGTAC,-0.178
6,CCCCGTTC,-0.0868
7,GCGGCCAA,-0.133
8,ATTCCTGG,0.0563
9,ATTACTAG,0.0374
10,GAAGGGGA,-0.0452
11,ACATGGGA,0.146
12,GGCTTGTA,-0.0417
13,CCCGTAAA,0.0385
14,CATATTAG,0.124
15,AGGCTCCA,-0.252
16,GACCTTCC,-0.112
17,GTATGTAA,0.0287
18,GACCGGTC,0.00213
19,ACACGGAC,0.0246
20,CACAATTA,0.025
21,CACACACC,-0.13
22,CTCCGGCC,-0.297
23,CTCTCTCA,-0.0307
24,CATCTCAC,-0.0644
25,GTCACATA,-0.101

# A few values from above.
# PBM E-score, GCTGTCCC is entered as -0.00551
# PBM E-score, GAGTGATC is entered as 0.136
# PBM E-score, GAAGGGGA is entered as -0.0452
# PBM E-score, ACCCTTCT is entered as -0.104

# (continued)

row,Sequence,PBM E-score
1,AACCGATC,-0.16
2,AGCACCAA,0.0406
3,ACATCGTG,0.00152
4,AAGGATTG,0.0909
5,AAGTTTGT,-0.00229
6,CCATCCGC,0.0584
7,CGGATCAC,0.112
8,GCCTTACA,-0.264
9,TATGCTAA,-0.0727
10,CCACCGTC,-0.224
11,AGTAAGCG,0.0471
12,AAGTTCTC,0.0924
13,CCCTTTAA,0.109
14,TATACGGA,-0.0587
15,AGACAGCC,-0.141
16,CTGAACGA,-0.166
17,CACGCCTG,-0.146
18,AAGTACCG,-0.0239
19,CGCATTGC,0.148
20,ATGCCGTA,0.0168
21,ATCGAAGA,0.193
22,CTCCTCTC,-0.123
